Results reported in article PMC4974639.

Target: hA3G-CD2 E259Q (Homo sapiens) (UniProt Q9HC16)
Experiment: EMSA
Conditions: no shifted band at comparable protein range, EMSA: 60 mM HEPES pH 7.5, 100 mM NaCl, on ice 10 min, native PAGE, recombinant protein, protein details: GST tag removed with PreScission (pGEX-6P-1)

Sequence: AUUAUUAUUAUUUAUCCCUAUUUAUAUUUAUUGUUAUUGUUAUUGUUAUA [50 nt RNA]
- binding result (label: 5'-FAM): no binding

Sequence: ATTATTATTATTTATCCCTATTTATATTTATTGTTATTGTTATTGTTATA [50 nt ssDNA]
- binding result (label: 5'-FAM (EMSA), single-stranded DNA): no binding

For at least one entry, the source does not settle the construct or the ends of the probe. Negatives hold for the conditions tested. At least one verdict was read from the data and is not stated in words by the source.
